Patent US20110142849A1

Chains of the proteins cited; added tags and fusions are not shown. Lines headed by an entry give the natural chain unless they say otherwise; changes in a name come on top.
UniProt Q8NBP7: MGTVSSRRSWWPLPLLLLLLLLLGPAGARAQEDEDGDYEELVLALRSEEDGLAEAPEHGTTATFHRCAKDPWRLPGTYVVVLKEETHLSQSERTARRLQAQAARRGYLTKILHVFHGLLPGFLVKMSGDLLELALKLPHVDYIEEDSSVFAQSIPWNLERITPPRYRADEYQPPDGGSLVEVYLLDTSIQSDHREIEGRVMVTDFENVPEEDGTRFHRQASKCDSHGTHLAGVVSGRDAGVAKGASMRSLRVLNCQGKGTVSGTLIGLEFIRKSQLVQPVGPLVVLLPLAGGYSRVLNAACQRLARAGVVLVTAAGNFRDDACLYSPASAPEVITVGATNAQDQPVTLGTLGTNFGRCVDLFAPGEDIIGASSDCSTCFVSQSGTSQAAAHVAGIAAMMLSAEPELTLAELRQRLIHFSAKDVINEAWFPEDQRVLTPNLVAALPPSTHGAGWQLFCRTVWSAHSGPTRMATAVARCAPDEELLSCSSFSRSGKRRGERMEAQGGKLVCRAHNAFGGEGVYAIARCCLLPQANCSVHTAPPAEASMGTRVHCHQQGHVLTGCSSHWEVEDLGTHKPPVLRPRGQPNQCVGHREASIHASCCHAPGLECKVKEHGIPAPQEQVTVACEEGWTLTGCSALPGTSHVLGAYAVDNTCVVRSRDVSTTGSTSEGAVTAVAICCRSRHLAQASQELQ

Legend:
[1] = target: recombinant human Pcsk9 (aa 31-692) with C-terminal his6 tag (human) (UniProt Q8NBP7); experiment: ELISA on Pcsk9-HIS
[2] = target: recombinant human Pcsk9 (aa 31-692) with C-terminal his6 tag (human) (UniProt Q8NBP7); experiment: ELISA
[3] = target: recombinant human Pcsk9 (aa 31-692) with C-terminal his6 tag (human) (UniProt Q8NBP7); experiment: specificity ELISA on coated antigen (88 ng per well), antibody at 2 µg/mL, ABS650
[4] = target: recombinant human Pcsk9 (aa 31-692) with C-terminal his6 tag (human) (UniProt Q8NBP7); experiment: epitope mapping, FIG. 7
[5] = target: recombinant human Pcsk9 (aa 31-692) with C-terminal his6 tag (human) (UniProt Q8NBP7); experiment: ELISA, Pcsk9 captured by its HIS tag on a Ni plate
[6] = target: recombinant human Pcsk9 (aa 31-692) with C-terminal his6 tag (human) (UniProt Q8NBP7); experiment: co-immunoprecipitation with 5P20, blot
[7] = target: recombinant human Pcsk9 (aa 31-692) with C-terminal his6 tag (human) (UniProt Q8NBP7); experiment: specificity ELISA on a panel of human and mouse antigens

binding [1]: binds
binding [2]: binds
binding [3]: binds
binding [4]: binds
binding [5]: binds
binding [6]: binds
binding [7]: binds
B1: NVP-LFU720 (antibody, V domains shown)
VH: EVQLQQSGAELMKPGASVKLSCTASGFNIKDMYMSWVRQRPEQGLEWIGRIDPANGHTNYDPKFQAKATITTDTSSKTAYLHLSSLTSEDTAVYYCARSYYYYAMDYWGQGTSVTVSS
VL: QIVLTQSPAIMSASPGEKVTMTCSASSSVSYMHWYQQKPGSSPRLWIYLTFNLASGVPARFSGSGSGTSYSLSISSMEAEDAATYYCLQWSSDPPTFGSGTKLEIK

No constants are given. Whether binding was seen depends on the method and setting. A result given as binding can be weak or reduced; the word gives no strength. For some of these results: In cells and extracts the contact can be indirect.
